Reference: PubChem BioAssay AID504834 (National Center for Advancing Translational Sciences (NCATS), 2011)
The whole screen tested about 320,000 compounds, of which about 22,000 (6.9%) were called active. Inconclusive means that the source gave no clear call. Such entries were picked first, then a sample of the others. Calls follow the shape of the dose curve; as a rule, active = well fitted inhibition curve with a large enough effect; inconclusive = small, poorly fitted or top-dose-only effect, or another doubt; inactive = no such curve, though single readings can be large or run the other way. Potencies of inconclusive entries are doubtful fits and often do not repeat.

Assay: Primary qHTS for delayed death inhibitors of the malarial parasite plastid, 96 hour incubation
Settings: P. falciparum luciferase reporter growth; series mostly up to 28.7 µM
In short: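 Plates of compound plus infected erythrocytes (2% hematocrit, 0.05% parasitemia final) incubate 96 hours, 37 C, 5% CO2. Detection reagent added; reduced luminescence from the parasites' luciferase reporter flags inhibition.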
Potency is read from the fitted curve at half-maximal effect.

SMILES	Potency
O=C1C2CCCN2C(=O)N1CCCCN1CCN(c2cccc(C(F)(F)F)c2)CC1 (stereo not given)	active: 13.1 µM
CC(C)Oc1ccc(CCc2n[nH]c(=S)n2-c2ccccc2)cc1	inconclusive: 18.5 µM [inhibitor, single point]
COc1cccc(CNC(=O)c2ccccc2NC(=O)C2=C(C)OCCS2)c1OC	inconclusive: 7.38 µM [inhibitor, partial curve]
COc1cc(C(=O)Nc2ccc(Nc3ccccc3)cc2)cc(OC)c1OC	active: 13.1 µM
CCNc1nc(NC#N)nc(SCC(=O)OCC)n1	inconclusive: 4.15 µM [inhibitor, partial curve, poor fit]
COCCNC(=O)c1ccc(CS(=O)(=O)c2cccc(C(F)(F)F)c2)o1	inconclusive: 2.94 µM [inhibitor, full curve]
Cc1cc(C)cc(N(CC(=O)NC2CCCC2)C(=O)CCC(=O)Nc2cc(C)on2)c1	inactive
COc1ccc(NC(=O)C2C(c3ccccc3)C2(Cl)Cl)cc1 (stereo not given)	inactive
COc1cc(OC)cc(-c2cc3nc(C)c(CCC(=O)Nc4nc(C)cs4)c(C)n3n2)c1	inconclusive: 18.5 µM [inhibitor, single point]
Cc1cc(C)nc(N(C#N)Cc2ccc(Br)cc2)n1	inconclusive: 14.7 µM [inhibitor, single point]
Cc1ccc(-c2nc(CS(=O)CC(=O)N3CCC4(CC3)OCCO4)c(C)o2)cc1 (stereo not given)	inactive
CCOP(=O)(OCC)C(C)(C)NC(=O)C(Cl)(Cl)Cl	inconclusive: 1.04 µM [inhibitor, partial curve, poor fit]
O=C(Nc1cccc(F)c1)c1ccc(Cn2cc([N+](=O)[O-])cn2)o1	inconclusive: 20.8 µM [inhibitor, single point]
Cc1ccc(NCC(=O)N2CCN(S(=O)(=O)c3ccccc3)CC2)cc1F	inconclusive: 11.7 µM [inhibitor, partial curve, poor fit]
Cc1onc(-c2ccccc2Cl)c1C(=O)Nc1cccc2cccnc12	inconclusive: 3.7 µM [inhibitor, full curve, poor fit]
Cc1cnc(CNC(=O)c2ccc3oc(C(C)C)nc3c2)[nH]1	inconclusive: 8.28 µM [inhibitor, partial curve, poor fit]
COc1ccccc1CN(C)CC(=O)NC(=O)NC1CCCCC1	inconclusive: 16.5 µM [inhibitor, single point]
COc1ccc(CN(Cc2cc3cc4c(cc3[nH]c2=O)OCO4)C(=O)NC2CCCCC2)cc1	inactive
Cc1ccc(NC(=O)CCSc2ccccc2)c(C)c1	inconclusive: 18.5 µM [inhibitor, single point]
COc1ccccc1NC(=O)Nc1cccc(C)n1	inactive
CCNc1nc(NC(C)C)nc(ON=C(C)C)n1	inconclusive: 2.62 µM [inhibitor, full curve]
Cc1ccccc1NC(=O)COC(=O)Cc1cccc(C(F)(F)F)c1	inactive
COc1ccc(N(C)S(=O)(=O)c2cccc(C(=O)NC3CCCCCC3)c2)cc1	inconclusive: 0.928 µM [inhibitor, partial curve, poor fit]

An excerpt from above in order of formula weight, ascending.
SMILES	Potency
COc1ccccc1NC(=O)Nc1cccc(C)n1	inactive
CCNc1nc(NC#N)nc(SCC(=O)OCC)n1	inconclusive: 4.15 µM [inhibitor, partial curve, poor fit]
Cc1cnc(CNC(=O)c2ccc3oc(C(C)C)nc3c2)[nH]1	inconclusive: 8.28 µM [inhibitor, partial curve, poor fit]
Cc1cc(C)nc(N(C#N)Cc2ccc(Br)cc2)n1	inconclusive: 14.7 µM [inhibitor, single point]
COc1ccc(NC(=O)C2C(c3ccccc3)C2(Cl)Cl)cc1 (stereo not given)	inactive
CC(C)Oc1ccc(CCc2n[nH]c(=S)n2-c2ccccc2)cc1	inconclusive: 18.5 µM [inhibitor, single point]
CCOP(=O)(OCC)C(C)(C)NC(=O)C(Cl)(Cl)Cl	inconclusive: 1.04 µM [inhibitor, partial curve, poor fit]
COc1cc(C(=O)Nc2ccc(Nc3ccccc3)cc2)cc(OC)c1OC	active: 13.1 µM
COCCNC(=O)c1ccc(CS(=O)(=O)c2cccc(C(F)(F)F)c2)o1	inconclusive: 2.94 µM [inhibitor, full curve]
COc1ccc(N(C)S(=O)(=O)c2cccc(C(=O)NC3CCCCCC3)c2)cc1	inconclusive: 0.928 µM [inhibitor, partial curve, poor fit]
Cc1ccc(-c2nc(CS(=O)CC(=O)N3CCC4(CC3)OCCO4)c(C)o2)cc1 (stereo not given)	inactive
Cc1cc(C)cc(N(CC(=O)NC2CCCC2)C(=O)CCC(=O)Nc2cc(C)on2)c1	inactive
COc1cccc(CNC(=O)c2ccccc2NC(=O)C2=C(C)OCCS2)c1OC	inconclusive: 7.38 µM [inhibitor, partial curve]
COc1cc(OC)cc(-c2cc3nc(C)c(CCC(=O)Nc4nc(C)cs4)c(C)n3n2)c1	inconclusive: 18.5 µM [inhibitor, single point]

Carrying on.

SMILES	Potency
C=CCNCc1ccc(C(=O)NCCCCCCC)cc1[N+](=O)[O-]	inconclusive: 10.4 µM [inhibitor, single point]
COc1ccc(-c2csc(Nc3ccc(C)cn3)n2)cc1	inactive
CCc1cccc(CC)c1NC(=O)CN1CCc2cc(OC)c(OC)cc2C1	inactive
CCCOc1ccc(CCC(=O)N/N=C/c2ccc([N+](=O)[O-])o2)cc1	active: 11.7 µM
CCOC(=O)C1=C(N)Oc2c(c(=O)oc3ccccc23)C12C(=O)N(C)c1ccccc12 (stereo not given)	inconclusive: 16.5 µM [inhibitor, single point]
NS(=O)(=O)c1ccc(CNC(=O)c2cc(S(=O)(=O)N3CCOCC3)c(Cl)cc2Cl)cc1	inconclusive: 9.28 µM [inhibitor, single point]
O=C(NCc1ccccn1)c1cn(-c2ccccc2)nc1-c1ccc(Cl)cc1	inactive
CC(NC(=O)Cc1ccsc1)c1ccc(Cl)cc1Cl (stereo not given)	inconclusive: 18.5 µM [inhibitor, single point]
Cc1cccc(Cn2c(C(C)(C)C)cc3cccnc32)c1	inconclusive: 13.1 µM [inhibitor, single point]
COC(CNC(=O)c1cn(C)c2ccc(S(=O)(=O)N3CCOCC3)cc2c1=O)OC	active: 9.28 µM
COc1ccc(OC)c(CN2CCCCCC2)c1	inactive
CCNC(=S)N(CCCO)Cc1cc2cc3c(cc2[nH]c1=O)OCCO3	inconclusive: 4.15 µM [inhibitor, partial curve, poor fit]
c1ccc(-c2nnc(CSc3ccc4c(c3)OCCO4)o2)cc1	inactive
Cc1cc(S(=O)(=O)N2CCCC(N(C)CCc3ccccn3)C2)c(C)cc1Cl (stereo not given)	inconclusive: 18.5 µM [inhibitor, single point]
COc1ccc2ccccc2c1/C=N/NC(=O)c1nnn(-c2nonc2N)c1C(C)C	inconclusive: 18.5 µM [inhibitor, single point]
Cc1ccccc1C(=O)c1cccn1CC(=O)NCc1ccccc1	inactive
CC(=O)OCC1=C(C(=O)O)N2C(=O)[C@@H](NC(=O)CSc3ccncc3)[C@@H]2SC1	inconclusive: 4.26 µM [inhibitor, partial curve, poor fit]
COc1cc(C2/C(=C(\O)c3ccc4c(c3)CC(C)O4)C(=O)C(=O)N2CCN2CCOCC2)cc(OC)c1OC (stereo not given)	inconclusive: 18.5 µM [inhibitor, single point]
NC(=O)CC(NC(=O)c1ccccc1)c1ccc(N2CCC(Cc3ccccc3)CC2)c([N+](=O)[O-])c1 (stereo not given)	inactive
COc1cccc(C2CC3C(=O)C=CC2N3Cc2ccccc2)c1 (stereo not given)	inconclusive: 18.5 µM [inhibitor, single point]
COc1ccc(CCNC(=O)Cn2c(=O)n(-c3ccc(F)cc3)c(=O)c3sccc32)cc1OC	inactive
C=CCn1c(C)cc(C(=O)CSc2nnc(-c3cccc(S(=O)(=O)N(CC)CC)c3)o2)c1C	inconclusive: 10.4 µM [inhibitor, single point]
